Laboratory results reported in patent US20050142568A1.
These are yes or no findings as the source states them, for the method shown. Tags and fused reporters may be left off the sequences shown.

Biological target: ^35S-Methionine labeled Luciferase
Test: GST pull-down of 35S-Met labelled luciferase (FIG. 7A)

B1: CRN-1 glutathione S-transferase fusion protein GST-CRN-1(21-382) (protein, C. elegans, UniProt Q9N3T2 21-382, looked up, not shown: a dimerising Fc or GST)
chain: NEMKAFFGRTVAIDASMCLYQFLIAVRQDGSQLQSEDGETTSHLMGMLNRTVRMFENGVKPVYVFDGKPPDMKGGELEKRSERRAEAEKALTEAKEKGDVKEAEKFERRLVKVTKQQNDEAKRLLGLMGIPVVEAPCEAEAQCAHLVKAGKVFGTVTEDMDALTFGSTVLLRHFLAPVAKKIPIKEFNLSLALEEMKLSVEEFIDLCILLGCDYCGTIRGVGPKKAVELIRQHKNIETILENIDQNKYPPPEDWPYKRARELFLNPEVTKPEEVELTWKEADVEGVIQFLCGEKNFNEERIRNALAKLKTSRKSGTQGRIDSFFGNSTKVTCVTAATKRKAEEAEKAKKGAKKGGPPKKRAK
B1 was tested, and the binding was “no binding (tested: 5 µg each (GST or GST-fusion protein))”.
